Hit rate of the full screen: of about 360,000 compounds, about 780 (0.22%) were called active. Inconclusive results, whose numbers are uncertain, are shown with a selection of clear calls. Cut-off read from the data, not from the text of the source: active = inhibition above about 35% (passing the limit was not always enough); inconclusive = no clear call, values can overlap the other calls.
Test system: Botulinum neurotoxin type F light chain protease (Clostridium botulinum)
Assay: BoNT/F light chain protease inhibitors, primary screen, biochemical, flow cytometry, MLPCN library (AID 588497); note: plate controls were buffer without enzyme for full effect and enzyme alone for no effect
Conditions: Multiplex microsphere protease cleavage assay, at 10 µM, stronger effect = higher value

| SMILES | inhibition |
| --- | --- |
| O=C(COC(=O)c1ccc(Br)o1)NCCCc1ccccc1 | inconclusive: -32.2% |
| CCCCn1c(N)c(N(CCOC)C(=O)c2cnc(C)cn2)c(=O)[nH]c1=O | inconclusive: -0.4% |
| O=C(/C=C/c1ccccc1)OCN1C(=O)c2ccccc2C1=O | inconclusive: 3.4% |
| CC(C)(C)CN1CCN(Cc2cc3ccccc3[nH]2)CC1CCO (stereo not drawn) | inconclusive: 36.2% |
| O=C(O)CCSc1nnc(-c2ccncc2)n1-c1ccccc1 | inconclusive: -25.1% |
| CC1(C)CC(=O)C2=C(C1)OC(/N=C/N1CCCC1)=C(C#N)C2c1ccccc1 (stereo not drawn) | inactive: -2.4% |
| O=C(CCN1CCCC1)c1cccs1 | inconclusive: 28.5% |
| CC(C)c1ccc(OCC(=O)NC(=S)Nc2ccc3c4c(cccc24)CC3)cc1 | inconclusive: 6.5% |
| CCOC(=O)c1cn(Cc2ccccc2)c2cc(C)nn2c1=O | inactive: -10.1% |
| COc1cccc(-c2cnc(C(O)c3ccc(C)cc3C)[nH]2)c1 (stereo not drawn) | inactive: -13.2% |
| O=C(COC(=O)CN1C(=O)c2ccccc2C1=O)NC1CCCCC1 | inactive: -0.6% |
| Cc1ccc(S(=O)(=O)c2nc(Nc3ccccc3N3CCOCC3)sc2Cl)cc1 | inactive: -2.1% |
| Cc1cc(=O)oc2cc(OCCc3ccccc3)ccc12 | inconclusive: -12.9% |
| Cc1ccc(C)c(NC(=O)C(CC(=O)O)C2CCCO2)c1 (stereo not drawn) | inconclusive: 13.7% |
| CCc1ccc(C(=O)COC(=O)CNC(=O)Cc2ccccc2)cc1 | inconclusive: -11.7% |
| CCc1cccc2c(C(=O)COC(=O)c3nccnc3N)c[nH]c12 | inactive: -15.2% |
| c1ccc2c(c1)CCCN2c1nc(N2CCOCC2)nc(N2CCOCC2)n1 | inconclusive: -109% |
| NC(=O)C1CC2(C1)CC(C(N)=O)C2 (stereo not drawn) | inactive: -1.4% |
| COc1ccccc1Oc1coc2cc(OCC(N)=O)ccc2c1=O | active: 40.9% |
| Cc1cc(=O)oc(C)c1C(=O)NCCCN1C(C)CCCC1C (stereo not drawn) | inactive: -2% |
| CCOc1ccc(OCCOC(=O)CN(C)S(=O)(=O)c2ccc(NC(C)=O)cc2)cc1 | inconclusive: -5.5% |
| CCCCN(C(=O)C1=COCCO1)c1c(N)n(CCCC)c(=O)[nH]c1=O | inconclusive: -5.3% |
| O=C1CC(Cc2ccccc2)C(=O)N1c1ccccn1 (stereo not drawn) | inconclusive: 17.5% |
| Cn1cc(/C=N/NC(=O)c2cc3cc(Br)ccc3o2)c2ccccc21 | inconclusive: -35.2% |

Five compounds drawn at random from those above:

| SMILES | inhibition |
| --- | --- |
| CC(C)(C)CN1CCN(Cc2cc3ccccc3[nH]2)CC1CCO (stereo not drawn) | inconclusive: 36.2% |
| c1ccc2c(c1)CCCN2c1nc(N2CCOCC2)nc(N2CCOCC2)n1 | inconclusive: -109% |
| O=C(COC(=O)c1ccc(Br)o1)NCCCc1ccccc1 | inconclusive: -32.2% |
| O=C1CC(Cc2ccccc2)C(=O)N1c1ccccn1 (stereo not drawn) | inconclusive: 17.5% |
| Cc1cc(=O)oc(C)c1C(=O)NCCCN1C(C)CCCC1C (stereo not drawn) | inactive: -2% |

Carrying on:

| SMILES | inhibition |
| --- | --- |
| O=C(O)c1ccc(N2N=C(c3ccccc3)CC2c2ccccc2)cc1 (stereo not drawn) | inconclusive: 4.7% |
| O=[N+]([O-])c1cccc(-c2cn3nc(-c4ccccc4)c(-c4ccccc4)nc3n2)c1 | active: 47.6% |
| C=CCN(CC=C)C(=O)C[n+]1ccc(C(N)=O)cc1 | inconclusive: 168% |
| CC(C)Nc1ncnc2c1ncn2[C@H]1CN(CCN2CCOCC2)C[C@@H](CO)O1 | inactive: 2.4% |
| Cc1nc(-[n+]2nc(-c3ccncc3)nn2-c2ccccc2)sc1C | inactive: -28.9% |
| CCn1ccnc1CN1CCN(CC=C(C)C)C(CCO)C1 (stereo not drawn) | active: 47.9% |
| CCN1C(=O)c2ccccc2S(=O)(=O)c2ccc(C(=O)NCCOC)cc21 | active: 61.3% |
| Cc1cc2cc(CNC(=O)c3ccc(S(=O)(=O)N4CCCCC4)cc3)ccc2[nH]1 | inactive: -86.6% |
| CCn1c(SCC(=O)c2ccc3ccccc3c2)nnc1-c1ccco1 | inconclusive: 44.2% |
| CN(c1ccc(C(=O)NCc2cccnc2)cc1)S(=O)(=O)c1ccc(Cl)cc1 | inactive: -1.4% |
| CCOC(=O)CNC(=O)N1CCCC(Cc2ccccc2)(C(=O)OCC)C1 (stereo not drawn) | inconclusive: -0.3% |
| CCOC(=O)N1CCN(C(=O)COC(=O)CNC(=O)c2ccc(C)cc2)CC1 | inconclusive: 6.2% |
| Clc1cc(Cl)cc(CN2CCSCC2)c1 | inconclusive: -213% |
| COc1ccc(-c2noc(CN(C)Cc3ccccc3)n2)cc1 | inconclusive: -13.2% |
| CCN(CC)CCN(Cc1cc2cc3c(cc2[nH]c1=O)OCCO3)C(=S)NC | inactive: 9.6% |
| O=C(Cc1ccc(Cl)cc1)Nc1cccnc1 | inconclusive: 30.8% |
| COc1ccc2c(c1)c(=O)oc1cc3occ(C(C)(C)C)c3cc12 | inconclusive: -6.1% |
| CS(=O)(=O)N1CCN(C(=O)CSc2ccccc2)CC1 | inconclusive: 10.1% |
| COc1ccc(NC(=O)c2ccc3c(=O)n4c(nc3c2)CCCCC4)cc1 | inactive: -3.1% |
| O=C(C#Cc1ccccc1)Nc1cccc(F)c1 | inconclusive: -28% |
| CC(=O)N1CCOc2ccc(S(=O)(=O)NCCc3cccc(C)c3)cc21 | inactive: 3.9% |
| CCOc1ccc(N(CC(=O)NCCSCc2ccc(C)cc2)S(C)(=O)=O)cc1 | inconclusive: 3.5% |
| CC(C)[C@H](NC(=O)N1CCn2c1nc1ccccc12)C(=O)N[C@H](C(=O)O)c1ccccc1 | inactive: -4.4% |
| O=C1CN(c2cc(Cl)cc(Cl)c2)C(=O)CN1/N=C/c1cccnc1 | inconclusive: 32.2% |

| SMILES | inhibition |
| --- | --- |
| O=C(CCN1C(=O)/C(=C/c2ccccc2)SC1=S)NNC(=O)c1cccnc1 | inactive: 2.4% |
| C=CCC(CC(O)COCCC)C(=O)NNC(=S)Nc1ccccc1 (stereo not drawn) | inactive: -2.6% |
| COc1cccc(CN(C)CC2CCCN(CCc3ccc(Cl)cc3)C2)c1OC (stereo not drawn) | inconclusive: 19% |
| O=C(N/N=C\c1ccc[nH]1)C1COc2ccccc2O1 (stereo not drawn) | inconclusive: -60.4% |
| O=C(Nn1cnnc1)c1cc(Br)ccc1Cl | inconclusive: -3.1% |
| O=C(NCc1ccccc1)c1csc2c1CCCC2 | inactive: -1% |
| COc1ccc(OC)c(-c2nc3c(C)n[nH]c(=O)c3[nH]2)c1 | inconclusive: -31.9% |
| O=C(NCc1ccc2c(c1)OCO2)C1CCCCC1 | inconclusive: 14.7% |
| CCNc1nc(NC(C)C)nc(NS(=O)(=O)c2ccc(C)cc2)n1 | inconclusive: -4.7% |
| O=C(NCc1ccncc1)[C@@H]1CCCN1C(=O)[C@H]1CCCN1C(=O)c1c(F)cccc1F | inactive: 0.3% |
| CN(/N=C/C=C/c1ccccc1)c1cc(=O)n(C)c(=O)[nH]1 | inactive: -0.2% |
| O=C(Nc1ccccc1C(=O)N1CCCC1)C1COc2ccccc2O1 (stereo not drawn) | inactive: -2.3% |
| CC(C)c1cccc(-c2csc(C(C)(O)c3ccncc3)n2)c1 (stereo not drawn) | inactive: 8.5% |
| O=c1[nH]c(=O)n(CCc2ccc(F)cc2)c(O)c1/C=N/N1CCCCC1 | inconclusive: -6.3% |
| CSc1ccc(C(=O)Nc2cc(S(=O)(=O)N3CCOCC3)ccc2N2CCOCC2)cc1[N+](=O)[O-] | inactive: -1.5% |
| O=C1CN(C(=O)C2CC2)c2ccccc2N1 | active: 37% |
| COc1cccc(/C=C2\NC(=O)NC2=O)c1O | inactive: -1.9% |
| COC(=O)c1noc(C)c1-c1ccnn1C(=O)c1ccc(C)cc1 | inconclusive: -37.4% |
| COc1ccc(C(=O)N/N=C(\C)CC(=O)Nc2cccc(C(F)(F)F)c2)cc1 | inconclusive: -65% |
| N#CC(c1ccc(Cl)cc1)c1ccc2c(C(F)(F)F)cc(C(F)(F)F)nc2n1 (stereo not drawn) | inactive: -0.5% |
| COc1ccc(Cn2c(=O)[nH]c3cc(OC)c(OC)cc3c2=O)cc1 | active: 35.9% |
| O=[N+]([O-])c1ccc(-c2nn(-c3ccccc3)cc2/C=N/n2c(-c3ccncc3)n[nH]c2=S)cc1 | inconclusive: 33.7% |
| Cc1ccc(NC(=O)Cc2nnc(SCC(=O)NC3CCCC3)n2C)cc1 | inactive: 2.3% |
| CCOc1ccc(NC(=O)C2C(c3ccccc3)C2(Cl)Cl)cc1 (stereo not drawn) | inconclusive: 3.1% |

| SMILES | inhibition |
| --- | --- |
| O=C(O)CC1(CC(=O)NCc2ccccn2)CCCCC1 | inconclusive: -14.3% |
| O=C(CCC(=O)Nc1ccc(F)cc1)N/N=C/c1ccc(F)cc1 | inconclusive: -7% |
| O=C(NCc1ccccc1)N1CCN(CCO)CC1 | inconclusive: -10.4% |
| O=C(COc1cccc(C(F)(F)F)c1)Nc1cccc(S(=O)(=O)NC2=NCCCCC2)c1 | inactive: -5.9% |
| Cc1cccc(OCC(=O)N2CCN(c3nnc(-c4ccccc4)c4ccccc34)CC2)c1 | inconclusive: -16.2% |
| COc1ccc(-c2sc3ccc(OC)cc3c2-c2ccc(OC)nc2)cc1 | inactive: 8.2% |
| Clc1ccc2[nH]c3c(c2c1)CCNC3 | inconclusive: -37.6% |
| COc1ccc2c(c1)CCC1C2=NN(/C(C)=C\C(C)=O)C1c1ccc(F)cc1 (stereo not drawn) | inconclusive: 29.1% |
| O=C1CCC([N+](=O)[O-])C(c2cc(Br)ccc2F)N1 (stereo not drawn) | inconclusive: -25.8% |
| CC(=O)c1sc(Nc2cccc3ccccc23)nc1C | inactive: -13% |
| O=P(Nc1cccnc1)(Oc1ccccc1Cl)Oc1ccccc1Cl | active: 86% |
| COCCNC(=O)C(c1cccc(OC)c1)N(C(=O)Cn1nnc2ccccc21)c1cccnc1 (stereo not drawn) | inconclusive: -7.3% |
| CC(=O)Nc1ccc(NC(=O)C(C)OC(=O)/C(C#N)=C/c2ccc(N(C)C)cc2)cc1 (stereo not drawn) | inconclusive: -29% |
| CC(CC(=O)NCCc1ccc(F)cc1)c1ccccc1 (stereo not drawn) | inconclusive: -6.4% |
| N#Cc1cncc(C#Cc2ccccc2)c1 | inconclusive: -41.2% |
| CCOC(=O)C1CCCN(c2cc(C)nc3cc(-c4ccc(Cl)cc4)nn23)C1 (stereo not drawn) | inconclusive: 19.3% |
| [O-][n+]1ccc(C(O)c2ccccc2)cc1 (stereo not drawn) | inconclusive: 10.6% |
| CCCc1nc2ccccc2c(=O)n1CCc1ccccc1 | inconclusive: 6.8% |
| O=C(NC12CC3CC(CC(C3)C1)C2)OC1CN2CCC1CC2 (stereo not drawn) | inconclusive: -56.7% |
| NC(=O)NC(=O)COC(=O)CN1C(=O)C2CCCCC2C1=O (stereo not drawn) | inactive: -14.8% |
| Cc1cccc(C(=O)Nc2ccc(S(=O)(=O)Nc3nc(C)cc(C)n3)cc2)c1 | inconclusive: -13.3% |
